Laboratory results as given in US6017512A, “Radiolabeled peptides” (Diatide, Inc., priority 1997, dated 2000).
Not every detail of the peptide structures is certain; ends, links or a residue may be inferred. Numbered stars: 1 amine (or outer) side, 2 acyl side, 3 side chain; on linkers, the order of the positions; unused ones are H or OH. Bridge positions count the residues as written; N and C are the ends. Square brackets hold non-standard residues; d marks the D form. Peptide text beside a SMILES is read from it. εLys = N[C@@H](CCCCN[*:1])C(=O)[*:2]

Amino acid sequences for entries named in this document (tags omitted). A change or cut given only in a name is not applied to a line headed by its entry.
UniProt P30680: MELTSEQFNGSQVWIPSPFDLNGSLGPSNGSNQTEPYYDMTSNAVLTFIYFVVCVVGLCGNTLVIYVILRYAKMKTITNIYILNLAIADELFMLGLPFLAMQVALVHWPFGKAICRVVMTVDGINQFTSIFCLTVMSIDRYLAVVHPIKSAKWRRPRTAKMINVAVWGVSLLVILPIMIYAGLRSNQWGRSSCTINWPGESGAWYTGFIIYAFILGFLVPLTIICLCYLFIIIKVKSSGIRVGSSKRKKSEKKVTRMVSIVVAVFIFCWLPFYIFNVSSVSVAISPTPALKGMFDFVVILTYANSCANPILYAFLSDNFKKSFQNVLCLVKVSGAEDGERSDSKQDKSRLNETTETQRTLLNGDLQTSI

Biological target: T1, somatostatin receptors (Rattus norvegicus, UniProt P30680)
T1 construct: endogenous in cells; host or cells: AR42J rat pancreatic tumor cell line, membrane preparation
Test: Inhibition of binding of [125I-Tyr11]somatostatin-14 to AR42J rat pancreatic tumor cell membranes
Details: uncomplexed peptides, displacement of [125I-Tyr11]somatostatin-14 (0.5 nM)
Method: Inhibition of Binding of [^125 I-Tyr^11 ]somatostatin-14 to AR42J Rat Pancreatic Tumor Cell Membranes
The rat pancreatic tumor cell line AR42J which expresses the somatostatin receptor was cultured in Dulbecco's minimal essential media (DMEM) supplemented with 10% fetal bovine serum (FBS) and 8 mM glutamine in a humidified 5% CO2 atmosphere at 37° C. in T-flasks. Harvested cells were homogenized in cold 50 mM Tris-HCl buffer (pH 7.4) and the homogenate then centrifuged at 39,000 g for 10 min at 4° C. Pellets were washed once with buffer and then resuspended in an ice-cold solution of 10 mM Tris-HCl (pH 7.4). Equal aliquots of this cell membrane preparation were incubated with [^125 I-Tyr^11 ]somatostatin-14 (at a final concentration of 0.5 nM and 750,000 cpm/mL, at a specific activity of 2000 Ci/mmol, Amersham, Arlington Heights, Ill.) and peptide or peptide-rheniumcomplex at a final concentration of from 10^-11 M to 10^-6 M in a solution of 50 mM HEPES (pH 7.4) containing 1% bovine serum albumin (BSA), 5 mM MgCl2, Trasylol (200,000 International Units), bacitracin (0.02 mg/mL) and phenylmethylsulfonylfluoride (0.02 mg/mL) for 25 min at 30° C. […] The filter and a sample of the filter washings were then counted in a gamma counter. […]

For `C[C@@H](O)[C@@H]1NC(=O)[C@H](CCCCN)NC(=O)[C@@H](Cc2c[nH]c3ccccc23)NC(=O)[C@H](Cc2ccccc2)NC(=O)[C@H](Cc2ccccc2)NC(=O)CSC[C@@H](C(=O)NCCCC[C@H](N)C(=O)NCC(=O)N[C@@H](CS)C(N)=O)NC(=O)[C@H](Cc2ccccc2)NC1=O` [CH2 CO.FFWD KTFC(ε-K)GC.amide] ({CH2CO}-FF[dW]KTFC[εLys]GC-NH2; thioether N-7), the Ki was 5.2 nM.
